Results reported in doi:10.1101/2020.07.20.211441.
Results are given in words; binding and its absence hold for the method and conditions named. Binding seen in cells or lysates may run through a third protein. These calls come from enrichment with a bait or labelling near it, and not all partners need be listed. Where a sequence is shown, tags or fusion partners need not be part of it.

T1: XPA-binding protein (XAB)-2, biotin-tagged knock-in (mouse) (UniProt Q9DCD2)
T1 sequence (chain, biotin on the Avitag (by the BirA ligase in vivo)): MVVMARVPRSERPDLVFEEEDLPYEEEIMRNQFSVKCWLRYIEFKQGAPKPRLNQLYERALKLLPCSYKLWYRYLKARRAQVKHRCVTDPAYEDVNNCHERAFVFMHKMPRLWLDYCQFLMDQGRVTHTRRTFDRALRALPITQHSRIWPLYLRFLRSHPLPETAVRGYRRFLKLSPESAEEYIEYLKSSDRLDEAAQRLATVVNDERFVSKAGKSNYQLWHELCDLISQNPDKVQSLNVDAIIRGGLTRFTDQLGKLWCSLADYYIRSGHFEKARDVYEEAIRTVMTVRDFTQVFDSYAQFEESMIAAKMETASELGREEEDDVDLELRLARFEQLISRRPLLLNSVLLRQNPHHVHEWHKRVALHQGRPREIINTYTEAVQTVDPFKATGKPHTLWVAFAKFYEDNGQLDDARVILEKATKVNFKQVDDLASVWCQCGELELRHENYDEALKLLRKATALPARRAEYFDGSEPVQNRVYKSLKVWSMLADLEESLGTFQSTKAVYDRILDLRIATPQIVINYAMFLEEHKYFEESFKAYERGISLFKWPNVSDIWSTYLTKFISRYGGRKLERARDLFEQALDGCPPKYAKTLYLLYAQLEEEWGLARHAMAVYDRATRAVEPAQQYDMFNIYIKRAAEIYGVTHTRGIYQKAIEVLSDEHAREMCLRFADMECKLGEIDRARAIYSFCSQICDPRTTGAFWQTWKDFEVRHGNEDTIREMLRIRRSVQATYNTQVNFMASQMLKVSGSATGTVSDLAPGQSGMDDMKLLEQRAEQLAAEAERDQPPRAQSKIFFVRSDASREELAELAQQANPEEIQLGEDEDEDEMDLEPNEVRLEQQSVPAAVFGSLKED

B1: SNRP40 (protein, UniProt Q6PE01 1-358)
chain: MIEQQKRKGPELPLVPVKRPRHELLLGAAGAGPGAGPQQATPGALLQAGPPRCSSLQAPIMLLSGHEGEVYCCKFHPNGSTLASAGFDRLILLWNVYGDCDNYATLKGHSGAVMELHYNTDGSMLFSASTDKTVAVWDSETGERVKRLKGHTSFVNSCYPARRGPQLVCTGSDDGTVKLWDIRKKAAVQTFQNTYQVLAVTFNDTSDQIISGGIDNDIKVWDLRQNKLTYTMRGHADSVTGLSLSSEGSYLLSNAMDNTVRVWDVRPFAPKERCVKIFQGNVHNFEKNLLRCSWSPDGSKIAAGSADRFVYVWDTTSRRVLYKLPGHAGSINEVAFHPDEPIILSASSDKRLYMGEIQ
B2: NUP107 (protein, UniProt Q8BH74 1-926)
chain: MDRSGFGGMSSPVIRDAEVTRTARKHSAHKRVLIQANQEDNFGTATPRSQIIPRTPSSFRQPFVTPSSRSLLRHPDISYILGTEGRSPRHTQSSGYLGNLSMVTNLDDSNWAAAFSSQRLGLYTNTEHHSMTEDVNLSTVMLREDDPGEAASMSMFSDFLHSFLKHSSTTVFDLVEEYENICGSQVNILSKIVSRATPGLQKFSKTASMLWLLQQEMVTWRLLASLYRDRIQSSLEEENMFAIAGINASEKMVVETLFQRDSLVRQSQLVVDWLESIAKDEIGEFSDNIEFYAKSVYWENTLHSLKQRQLLSHMGSTRPLVTELDPDAPIRQKLPLDDLDREDEVRLLKYLFTLIRAGMTEEAQRLCKRCGQAWRAATLEGWKLYHDPNVNGGTELEPVEGNPYRRIWKISCWRMAEDELFNKYERAIYAALSGNLKQLLPVCDTWEDTVWAYFRVMVDSLVEQEIRTSVMTQDDSEELPREYMEANWTLEKVFEELQATDKKRVLEENQEHYHIVQKFLILGDVDGLMDEFSKWLSKSGSSLPGHLLRFMTHLILFLRTLGLQTKEEVSIEVLKTYIQLLISEKHTSLIAFYTCHLPQDLAVAQYALFLEGVTEFEQRHQCLELAKEADLDVATITKTVVENICKKDNGEFSHHDLAPSLDTGTTEEDRLKIDVIDWLVFDPAQRAEALRQGNAIMRKFLALKKHEAAKEVFVKIPQDSIAEIYNQWEEQGMESPLPAEDDNAIREHLCIRAYLEAHETFNEWFKHMNSAPQKPTLLSQATFTEKVAYEHREKKYEMDHNIWKGHLDALTADVKEKMYNVLLFVDGGWMVDVREDAEDDPERTHQMVLLRKLCLPMLCFLLHTILHSTGQYQECLQLADMVSSERHKLYLVFSKEELRKLLQKLRESSLMLLDQGLDPLGYEIQS

Biological target: T1, XPA-binding protein (XAB)-2, biotin-tagged knock-in (mouse)
Experiment: affinity purification with mass spectrometry

Row | binding | Binder
1 | binds | B1
2 | binds | B2
